The record followed here is publication doi:10.1101/690172.

Protein sequences, listed by entry. Tags and fused reporters are not part of them.
UniProt Q61879: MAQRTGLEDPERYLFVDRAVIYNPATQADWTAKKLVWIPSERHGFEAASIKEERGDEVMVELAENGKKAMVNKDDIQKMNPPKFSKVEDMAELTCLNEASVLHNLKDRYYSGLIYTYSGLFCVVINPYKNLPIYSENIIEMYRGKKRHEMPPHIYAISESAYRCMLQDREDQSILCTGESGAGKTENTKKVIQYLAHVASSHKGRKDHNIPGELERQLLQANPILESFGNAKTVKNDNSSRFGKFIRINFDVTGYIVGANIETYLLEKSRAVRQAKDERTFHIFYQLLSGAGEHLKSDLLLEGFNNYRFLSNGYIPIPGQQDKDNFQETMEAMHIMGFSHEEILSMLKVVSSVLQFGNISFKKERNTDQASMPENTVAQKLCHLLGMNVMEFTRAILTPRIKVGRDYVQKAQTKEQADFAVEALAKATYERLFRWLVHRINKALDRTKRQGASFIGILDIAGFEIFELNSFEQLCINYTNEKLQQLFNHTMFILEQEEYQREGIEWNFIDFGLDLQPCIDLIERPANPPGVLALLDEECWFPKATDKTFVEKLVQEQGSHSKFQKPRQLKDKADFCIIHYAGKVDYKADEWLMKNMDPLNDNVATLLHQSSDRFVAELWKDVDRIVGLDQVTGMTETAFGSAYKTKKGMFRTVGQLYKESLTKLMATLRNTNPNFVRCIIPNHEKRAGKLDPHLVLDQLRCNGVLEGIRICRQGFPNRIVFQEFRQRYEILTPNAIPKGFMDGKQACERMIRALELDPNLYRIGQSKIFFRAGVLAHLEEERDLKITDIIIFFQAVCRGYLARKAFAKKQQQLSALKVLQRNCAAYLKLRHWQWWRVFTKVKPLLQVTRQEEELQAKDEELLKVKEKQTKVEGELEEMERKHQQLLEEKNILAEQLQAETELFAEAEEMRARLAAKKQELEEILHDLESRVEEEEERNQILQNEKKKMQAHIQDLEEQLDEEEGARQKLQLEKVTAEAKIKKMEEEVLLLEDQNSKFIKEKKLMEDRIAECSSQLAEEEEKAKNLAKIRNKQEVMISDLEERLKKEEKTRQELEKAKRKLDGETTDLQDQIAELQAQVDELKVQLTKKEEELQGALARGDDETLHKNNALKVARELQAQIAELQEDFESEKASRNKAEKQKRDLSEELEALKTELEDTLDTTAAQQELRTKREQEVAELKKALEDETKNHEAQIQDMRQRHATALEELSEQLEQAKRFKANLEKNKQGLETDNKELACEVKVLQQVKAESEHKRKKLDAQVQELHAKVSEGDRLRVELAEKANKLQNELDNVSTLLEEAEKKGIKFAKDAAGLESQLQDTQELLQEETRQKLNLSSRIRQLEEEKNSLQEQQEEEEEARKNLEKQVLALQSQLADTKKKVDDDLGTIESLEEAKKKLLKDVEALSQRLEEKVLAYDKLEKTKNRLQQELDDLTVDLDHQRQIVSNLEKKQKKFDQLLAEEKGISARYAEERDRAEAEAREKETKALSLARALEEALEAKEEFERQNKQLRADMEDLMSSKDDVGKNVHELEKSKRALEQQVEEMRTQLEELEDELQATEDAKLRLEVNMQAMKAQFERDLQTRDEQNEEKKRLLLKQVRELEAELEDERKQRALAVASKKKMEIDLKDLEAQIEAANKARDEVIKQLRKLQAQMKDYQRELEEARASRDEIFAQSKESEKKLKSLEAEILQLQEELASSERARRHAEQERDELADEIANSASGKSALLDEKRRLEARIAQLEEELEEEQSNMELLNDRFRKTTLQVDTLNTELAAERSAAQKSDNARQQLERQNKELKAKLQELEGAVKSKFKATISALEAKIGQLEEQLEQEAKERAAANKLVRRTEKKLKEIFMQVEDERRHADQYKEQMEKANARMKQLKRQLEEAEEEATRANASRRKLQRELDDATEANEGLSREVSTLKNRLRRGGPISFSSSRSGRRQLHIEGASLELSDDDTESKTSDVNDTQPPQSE

For this assay, the target named is T1, Cyclin-dependent-like kinase 5 (Cdkl5), mouse, endogenous (mouse (endogenous in murine cortex and DRG)) (UniProt Q3UTQ8).
T1 sequence: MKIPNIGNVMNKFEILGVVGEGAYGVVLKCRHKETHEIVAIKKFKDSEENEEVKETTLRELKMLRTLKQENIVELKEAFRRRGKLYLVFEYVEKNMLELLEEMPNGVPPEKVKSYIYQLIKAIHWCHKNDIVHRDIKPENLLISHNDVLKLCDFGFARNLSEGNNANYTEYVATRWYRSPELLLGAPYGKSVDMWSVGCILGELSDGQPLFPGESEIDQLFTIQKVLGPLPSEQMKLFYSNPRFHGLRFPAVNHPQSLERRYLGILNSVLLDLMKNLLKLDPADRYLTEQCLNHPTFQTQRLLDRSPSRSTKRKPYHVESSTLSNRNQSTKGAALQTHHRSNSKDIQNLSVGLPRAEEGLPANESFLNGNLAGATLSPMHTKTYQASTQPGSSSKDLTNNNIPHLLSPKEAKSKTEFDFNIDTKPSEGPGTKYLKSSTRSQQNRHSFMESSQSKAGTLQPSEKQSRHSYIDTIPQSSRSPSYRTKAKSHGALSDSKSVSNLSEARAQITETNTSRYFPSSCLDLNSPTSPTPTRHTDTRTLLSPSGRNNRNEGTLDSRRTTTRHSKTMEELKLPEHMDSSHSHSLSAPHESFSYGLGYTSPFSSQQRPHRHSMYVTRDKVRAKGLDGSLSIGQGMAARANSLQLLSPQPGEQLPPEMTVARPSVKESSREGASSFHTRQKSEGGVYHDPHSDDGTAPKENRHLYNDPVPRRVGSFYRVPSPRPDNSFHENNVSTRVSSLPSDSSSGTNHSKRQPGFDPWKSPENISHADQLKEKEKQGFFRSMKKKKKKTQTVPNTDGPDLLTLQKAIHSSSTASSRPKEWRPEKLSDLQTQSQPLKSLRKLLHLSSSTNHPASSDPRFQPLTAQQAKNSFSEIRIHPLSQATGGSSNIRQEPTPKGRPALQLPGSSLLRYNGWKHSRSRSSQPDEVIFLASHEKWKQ
As to the kind of experiment: affinity purification with mass spectrometry.

These are yes or no findings as the source states them, for the method shown. Binding seen in cells or lysates may run through a third protein. A yes stands for co-enrichment or nearness to the bait. Other partners may have been found.

As to “Myh10, mouse, endogenous (from UniProt Q61879 1-1976)”, the binding entry is on record as “binds”.

Take “Dynch1h1, mouse, endogenous (from UniProt Q9JHU4 1-4644)”: the binding result is given as “binds”.
